Measurements from “University of Dundee, Small-Polar-MMV Screening Library” (2021), ChEMBL document CHEMBL3988442.

Protein sequences, listed by entry. Tags and fused reporters are not part of them. Residues count along the entry.
UniProt A4I591, 1-473: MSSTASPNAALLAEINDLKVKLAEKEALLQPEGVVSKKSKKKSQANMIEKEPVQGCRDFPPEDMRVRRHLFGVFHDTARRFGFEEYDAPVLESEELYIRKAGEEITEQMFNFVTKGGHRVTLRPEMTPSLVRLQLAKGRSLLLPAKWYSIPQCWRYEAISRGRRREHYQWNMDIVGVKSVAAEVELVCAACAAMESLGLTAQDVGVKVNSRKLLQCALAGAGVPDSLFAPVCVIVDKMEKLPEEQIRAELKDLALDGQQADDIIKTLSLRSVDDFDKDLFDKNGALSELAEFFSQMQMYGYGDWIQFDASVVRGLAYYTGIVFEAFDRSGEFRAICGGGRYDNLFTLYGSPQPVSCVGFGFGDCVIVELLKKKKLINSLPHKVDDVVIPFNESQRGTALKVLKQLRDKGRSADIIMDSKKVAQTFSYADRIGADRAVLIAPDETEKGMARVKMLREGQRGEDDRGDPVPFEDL
UniProt P9WPC5, whole entry: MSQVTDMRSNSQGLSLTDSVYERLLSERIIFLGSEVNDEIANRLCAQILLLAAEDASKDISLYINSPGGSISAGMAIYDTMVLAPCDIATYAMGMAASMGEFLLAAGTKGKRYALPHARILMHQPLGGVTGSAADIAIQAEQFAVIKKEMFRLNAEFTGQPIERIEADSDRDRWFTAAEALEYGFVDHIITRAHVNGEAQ
UniProt P9WPC3, whole entry partner: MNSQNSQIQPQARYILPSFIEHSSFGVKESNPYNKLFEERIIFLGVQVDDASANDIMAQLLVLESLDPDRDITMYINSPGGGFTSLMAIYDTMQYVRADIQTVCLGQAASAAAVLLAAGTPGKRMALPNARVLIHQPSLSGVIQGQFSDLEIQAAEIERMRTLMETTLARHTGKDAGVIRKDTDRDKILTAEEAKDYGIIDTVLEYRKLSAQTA
UniProt Q4DA54, 1-478: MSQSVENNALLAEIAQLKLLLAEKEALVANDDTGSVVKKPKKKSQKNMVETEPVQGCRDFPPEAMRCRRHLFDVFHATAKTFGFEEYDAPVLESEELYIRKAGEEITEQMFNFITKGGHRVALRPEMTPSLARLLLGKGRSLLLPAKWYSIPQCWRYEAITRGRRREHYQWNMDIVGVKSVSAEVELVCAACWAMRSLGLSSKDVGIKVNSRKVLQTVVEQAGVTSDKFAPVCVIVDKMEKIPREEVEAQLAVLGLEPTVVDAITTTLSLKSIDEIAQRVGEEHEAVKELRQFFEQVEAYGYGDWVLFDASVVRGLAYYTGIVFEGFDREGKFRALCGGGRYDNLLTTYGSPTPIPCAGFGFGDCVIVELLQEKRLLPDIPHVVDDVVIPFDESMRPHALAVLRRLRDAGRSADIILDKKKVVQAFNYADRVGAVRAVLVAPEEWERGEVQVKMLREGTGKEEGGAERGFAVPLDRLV

Toxoplasma: 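Assay of Toxoplasma gondii numbers, read through their beta-galactosidase reporter with a colour substrate. Tested at 10 µM. Higher reads as fewer parasites (inferred from which compounds were picked for retests). About 67,000 compounds were tested under these conditions; 0.38% (about 260) showed 50% or more at least once.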
T. brucei: 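Whole-parasite assay of Trypanosoma brucei over 72 hours; the read-out is not stated. Compounds at 30 µM. Higher reads as stronger inhibition (inferred: compounds with an IC50 in retests scored well above the rest). Values scatter widely below zero; nearly all retest evidence comes from the higher of the two concentrations used. About 64,000 compounds were tested under these conditions; 1.5% (about 940) showed 50% or more at least once.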
LiHisRS: 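Histidine-tRNA ligase, Leishmania infantum (UniProt A4I591). Enzyme assay of histidyl-tRNA synthetase; the read-out is not stated. Tested at 30 µM. Direction is inferred from retests: higher values go with stronger inhibition. The assay is labelled LdHisRS but filed under L. infantum. About 69,000 compounds were tested under these conditions; 0.6% (about 410) showed 50% or more at least once.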
ClpP1P2: 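Protease assay of ClpP1P2, read by the AMC dye that it sets free. Target: ClpP1P2, Mycobacterium tuberculosis (UniProt P9WPC5 and UniProt P9WPC3). Concentration: 50 µM. Direction is inferred from only a few compounds that gave an IC50; most scored high, so higher reads as stronger inhibition. Most other retested compounds had strongly negative values. About 69,000 compounds were tested under these conditions; 0.015% (about 10) showed 50% or more at least once.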
TcHisRS: 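Histidine-tRNA ligase, Trypanosoma cruzi CL Brener (UniProt Q4DA54). Enzyme assay of histidyl-tRNA synthetase; the read-out is not stated. Tested at 30 µM. The record gives no direction; compounds that gave an IC50 in retests scored well above the rest, so higher reads as stronger inhibition. Size under these conditions: about 69,000 compounds, about 31 of them at 50% or above in at least one test.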

The filed quantity is “Percent Effect” (%). The record does not define 0% and 100%; most values in the screen are far below 50% and negative numbers occur (in some assays of this library far below -100). The compounds are a random part of those screened. A dash means the value is not listed here; it may have been measured.

compound | Toxoplasma | T. brucei | LiHisRS | ClpP1P2 | TcHisRS
[H][C@@]12CNC[C@]1([H])CN(C(=O)c1ccc(F)c(F)c1)C2 | -1.939 | -1.904 | - | - | -
CSCc1noc(-c2nc3c([nH]2)CCCNC3=O)n1 | -5.493 | -12.66 | 12.9 | 9.568 | 2.469
CC(C)(O)c1cn(C[C@H]2C[C@@H]3CCN2C[C@@H]3C(=O)N2CCOCC2)nn1 | - | - | 4.054 | -10.89 | 3.261
Cc1nc(Cc2ccc(F)cc2)cc(C2COCCN2)n1 (configuration not stated) | - | - | 28.17 | -18.4 | 20.45
COCCN1CCC2(CCC1=O)CN(C1CCOCC1)CCN2C (configuration not stated) | 21.49 | 42.22 | 3.279 | -12.55 | -0.8
CCCn1cc(C(=O)NC(C)c2c(C)nn(CC)c2C)c(C)n1 (configuration not stated) | -17.91 | -22.16 | 9.79 | -10.87 | 6.468
O=C(NCc1ccco1)[C@H]1C[C@H]2OCC[C@H]2N(C(=O)c2ccnnc2)C1 | - | - | 5.556 | -15.69 | 4.762
COc1c(C2CCCN2C(=O)c2ccc(O)nc2)c(C)nn1C (configuration not stated) | -2.742 | - | 2.655 | -2.626 | 2.624
[H][C@]12CCCCN1CCC[C@H]2CCC(=O)NCCc1nc(O)cc(O)n1 | -1.326 | 1.558 | - | - | -
Cc1cnn(CC2CCCN2C(=O)c2cccc3c2OCO3)c1 (configuration not stated) | 4.632 | 11.25 | 8.264 | 6.653 | 3.361
CC(C)CCC1=NC2(CCN(C(=O)N3CCN(C)CC3)CC2)C(=O)N1 | 4.38 | -49.6 | 9.375 | 13.34 | 2.128
CC(NCCCN1CCCC1=O)c1cc(Br)ccc1O (configuration not stated) | 8.613 | -18.7 | 8.046 | -4.386 | 4.124
CC(C)CN1CC(C(=O)NCc2ccnc(-n3cccn3)c2)CC1=O (configuration not stated) | -42.25 | -4.191 | 12.04 | -0.9981 | 1.466
CN(C)CC(=O)N1CCc2cccc(S(=O)(=O)N3CCOCC3)c2C1 | -4.956 | -39.56 | -1.613 | -15.93 | 3.509
Cn1cccc1C(=O)N[C@@H]1CN(CC2CC2)[C@@H]2COC[C@@H]21 | - | - | 11.32 | -5.656 | 4.865
Cc1nc(C)n(CC(C)C(=O)N2CCC(N3CCC(O)CC3)CC2)n1 (configuration not stated) | 21.5 | -4.254 | 9.836 | -14.12 | 0
CCn1cnnc1C1CCN(C(=O)c2cnc(C)s2)CC1 | 10.94 | -3.321 | 16.36 | -5.919 | 2.924
O=C(Nc1cccc(F)c1)C1CCCN1c1nccs1 (configuration not stated) | 14.95 | 1.599 | 8.333 | -6.108 | 7.331
Cc1ccc(Cn2nc(C)c3c(C(=O)O)c(Cl)c(C)nc32)cc1 | 13.78 | -10.94 | 11.5 | 3.933 | 1.327
COC(=O)c1ccoc1CN(C)Cc1cc(OC)c(OC)cc1C | -7.461 | -8.257 | 0 | -5.065 | 0
[H][C@@]12C[C@@H](c3nc(C)no3)O[C@]1([H])CN(S(=O)(=O)c1cccc(C)c1)C2 | -0.5901 | -8.052 | - | - | -
Cc1ccc(C(=O)N2CCN3C[C@H](Oc4cncnc4)C[C@H]3C2)cn1 | - | - | 19.44 | -6.923 | 5.473
CCCc1nc(C)cc(N2CCC3(CCC(=O)N(CCO)C3)CC2)n1 | 7.014 | -10.28 | 11.48 | -1.325 | 0
COCCN(Cc1cccc(C#N)c1)Cc1nnsc1Cl | -2.283 | -16.6 | -9.167 | -4.701 | 5.263
CC(C)(C)NC(=O)CN1CCCNCC1 | 7.512 | -2.716 | 12 | -0.1437 | 1.587
CC(=O)NCC(=O)N1Cc2nc(COCc3csc(C)n3)oc2C1 | 2.606 | -33.36 | 10.26 | -7.766 | 4.908
O=C(c1cncc(N2CCC(O)(CO)CC2)n1)N1CCCC1 | 1.211 | 40.04 | 26.21 | -52.74 | 2.075
Cc1cccc(NC(=O)[C@@H]2CCCN2Cc2ccccc2C#N)n1 | 4.186 | -32.01 | 15.18 | 6.067 | 10
CC(=O)N1CCCC2(CCN(C(=O)c3ccc(Cl)c(C(F)(F)F)c3)C2)C1 (configuration not stated) | -2.794 | 29.77 | 14.55 | 5.915 | 4.132
CCC(O)CN1CCN(C(=O)Cc2c(C)nc(C)[nH]c2=O)CC1 (configuration not stated) | 1.063 | -52.68 | 6.494 | -13.33 | 1.478
COCCN1CCC(NC(=O)C2(c3cc(C)cc(C)c3)CC2)CC1 | 0.3139 | -23.83 | 4.545 | -10.09 | 0
CC(NC(=O)NCC(C)(C)O)c1ccc(-c2cncnc2)cc1 (configuration not stated) | -3.162 | -71.28 | 9.821 | -7.176 | -8.621
Cc1cnn(CC(=O)NC2CCCc3cc(OC(F)F)ccc32)c1 (configuration not stated) | 3.239 | -19.74 | 11.11 | 3.018 | 3.333
Cc1ccc2c(c1)OCCN2C(=O)c1ccc(=O)n(C)c1 | -1.599 | 2.776 | 9.333 | -2.414 | -0.578
CCc1nccn1C1CCCN(C(=O)c2ccoc2C)C1 (configuration not stated) | -6.318 | -14.24 | 6.14 | -9.125 | 0.8721
O=C(O)C(F)(F)F.[H][C@]12CCN(CC3CC3)C(=O)[C@]1([H])CN(C1CCOCC1)C2 | -14.82 | -18.6 | - | - | -
OC(CN(Cc1ccccc1)Cc1ccncc1)c1ccco1 (configuration not stated) | -1.801 | -42.14 | 26.32 | 5.177 | -15.97
CSc1nsc(NC(=O)c2cc(C3CC3)nn2C)n1 | 2.672 | 7.812 | 11.51 | -0.6527 | 3.448
O=C(O)C(F)(F)F.O=C(O)C(F)(F)F.[H][C@@]12COC[C@]1([H])[C@H](OCc1ccccn1)CN2Cc1nccs1 | -14.34 | -85.37 | - | - | -
O=C1C[C@H]2[C@@H](CCN2C(=O)Cc2cccs2)N1Cc1ccncc1 | - | - | 25 | 4.854 | 9.709
CCc1ccccc1CNC(=O)NCc1cnn(C)c1 | -6.113 | - | 16.67 | -15.05 | 8.333
Cc1ccc(C)c(CN2C[C@H]3CC[C@@H]2CN(C(=O)c2cccnc2)C3)c1 | - | - | 8.8 | -2.948 | 0.5025
O=C(N1CCOCC1)N1CCc2ncnc(NC3CC3)c2CC1 | -6.906 | -67.48 | 3.846 | 13.04 | 8.021
O=C(c1cscn1)N1CCn2cnc(COCC3CC3)c2C1 | 1.919 | -36.41 | 18.58 | 1.413 | 4.301
CCOc1ccnc(N2CCN(C(=O)c3ccc(OC)cc3)CC2)n1 | -19.47 | 16.36 | 4.386 | -7.017 | 4.624
Cc1nc(CN2CCCC2c2[nH]ncc2C(=O)N(C)C)cs1 (configuration not stated) | -38.49 | -14.34 | 8.054 | -43.17 | 2.571
Cc1cc(C)c(S(=O)(=O)NCCC(=O)NCc2ccoc2)c(C)c1 | 30.93 | 15.72 | 15.18 | 5.617 | 10
CCS(=O)(=O)NC[C@]12COC[C@H]1CN(Cc1ccsc1)C2 | - | - | -2.632 | 3.399 | 0
Cn1c(Cn2ccnc2)nnc1C1CCN(C(=O)c2ccncc2)CC1 | -24.18 | -20.01 | 13.83 | 18 | 9.045
COCCNC(=O)Nc1ccc(-c2nc(C(C)C)no2)cc1 | -8.573 | 20.35 | 16.87 | -0.7206 | 3.867
COc1ccc(-n2nc(C3CC3)nc2CCn2cnnn2)cc1 | -0.5408 | -26.75 | 18.33 | 9.987 | 0
CC(c1nc(C2CC2)no1)N1CCN(CCOCC(F)(F)F)CC1 (configuration not stated) | 0.4308 | 13.54 | 12.31 | 0.01688 | 1.149
CNC(=O)[C@@H](c1ccccc1OC)N1CCC[C@H]1C(=O)N1CC[C@@H](O)C1 | - | - | 16.67 | -1.934 | 3.483
CCCN1CCC2(C1)c1ccccc1S(=O)(=O)N2Cc1ccccc1 (configuration not stated) | - | - | 10 | -12.46 | 9.195
Cc1ncc(S(=O)(=O)N(CC(C)C)c2cccc(O)c2)s1 | -1.273 | -58.32 | 21.98 | -8.712 | 24.7

The last 4 entries again:

* CC(c1nc(C2CC2)no1)N1CCN(CCOCC(F)(F)F)CC1 (configuration not stated) : Toxoplasma: 0.4308%; T. brucei: 13.54%; LiHisRS: 12.31%; ClpP1P2: 0.01688%; TcHisRS: 1.149%
* CNC(=O)[C@@H](c1ccccc1OC)N1CCC[C@H]1C(=O)N1CC[C@@H](O)C1 : LiHisRS: 16.67%; ClpP1P2: -1.934%; TcHisRS: 3.483%
* CCCN1CCC2(C1)c1ccccc1S(=O)(=O)N2Cc1ccccc1 (configuration not stated) : LiHisRS: 10%; ClpP1P2: -12.46%; TcHisRS: 9.195%
* Cc1ncc(S(=O)(=O)N(CC(C)C)c2cccc(O)c2)s1 : Toxoplasma: -1.273%; T. brucei: -58.32%; LiHisRS: 21.98%; ClpP1P2: -8.712%; TcHisRS: 24.7%